{"source": "patent US20240246951A1", "about": "“COMPOUND HAVING BIOLOGICAL ACTIVITY SUCH AS ANTIVIRAL ACTIVITY” (NATIONAL CENTER FOR GLOBAL HEALTH AND MEDICINE, priority 2021, published 2024)", "system": "SARS-CoV-2WK-521", "type": "cell-based", "details": "concentration of 1 μM", "note": "For at least one compound, name, drawing or mass did not settle the structure.", "data": [{"smiles": "CC(C)(C)[C@H](NC(=O)C(F)(F)F)C(=O)N1C[C@H]2[C@@H](C1C(=S)N[C@@H](C[C@@H]1CCNC1=O)C(=O)c1nc3c(F)cccc3s1)C2(C)C", "note": "(stereo partly drawn) [Compound 245s, 2,2,2-trifluoro-N-((S)-1-((1R,2S,5S)-2-(((S)-1-(4-fluorobenzo[d]thiazol-2-yl)-1-oxo-3-((S)-2-oxopyrrolidin-3-yl)propan-2-yl)carbamothioyl)-6,6-dimethyl-3-azabicyclo[3.1 0.0]hexan-3-yl)-3,3-dimethyl-1-oxobutan-2-yl)acetamide]", "values": [{"measurement": "suppression of proliferation of SARS-CoV-2", "value": "almost completely suppressed"}]}]}
